System: SVV replication in Per.C6 cells
Assay: SVV replication in Per.C6 cells with or without IFN-α pretreatment, virus yield by plaque assay
Assay type: cell-based, human
Conditions: Per.C6 cells pretreated with 500 units IFN-α, SVV MOI 1, 300 nM SSP added at time 0, 24 h post infection
Method: FIG. 1 is a histogram depicting the inhibition of SVV replication by IFN-α. Per.C6 cells were pretreated with 500 units IFN-α before infection with SVV at MOI=1. Virus yields were determined by plaque assay 24 h post infection. The results are representative of 3 independent experiments.
FIGS. 2A-2B are series of histogram depicting the effect of staurosporine on SVV replication. FIG. 2A. SVV replication in HeLa cells can be enhanced with staurosporine (SSP). FIG. 2B. Inhibition of SVV replication by IFN-α can be reversed with SSP in Per.C6 cells. TEM 8+ HeLa cells or Per.C6 cells were pretreated with 500 units IFN-α before infection with SVV at MOI 1. 300 nM SSP was added at time 0. Virus yields determined by plaque assay 24 h post infection. Results are representative of three independent experiments.
FIGS. 3A-3B are series of histogram depicting the effect of Trichostatin A on SVV replication. FIG. 3A. SVV replication in HeLa cells can be enhanced with Trichostatin A. FIG. 3B. […] Virus yields determined by plaque assay 24 h post infection. […]
FIGS. 4A-4B are series of histogram depicting the effect of Torin 2 A on SVV replication. […] Virus yields determined by plaque assay 24 h post infection. […]
Virus infections. […] Cells were counted at the time of infection and viral stocks were diluted in PBS+0.01% BSA (Sigma, St. Louis, MO) for infections at the appropriate MOI. […]

CN[C@@H]1C[C@H]2O[C@@](C)([C@@H]1OC)n1c3ccccc3c3c4c(c5c6ccccc6n2c5c31)C(=O)NC4 [staurosporine]
effect on inhibition of SVV replication by IFN-α: reversed the inhibitory effect of IFN-α on SVV replication

From patent US12502414B2, “Second generation Seneca Valley virus oncolytic therapy: compositions and methods thereof” (SENECA THERAPEUTICS, INC., priority 2019, dated 2025)
